This passage reports binding results from patent US20170306047A1, “PHARMACEUTICAL COMPOSITION FOR CANCER PREVENTION AND TREATMENT, CONTAINING NDRG3 EXPRESSION OR ACTIVITY INHIBITOR AS ACTIVE INGREDIENT, OR NDRG3 PROTEIN-SPECIFIC ANTIBODY AND USE THEREOF” (KOREA RESEARCH INSTITUTE OF BIOSCIENCE AND BIOTECHNOLOGY, priority 2014, published 2017).

The chains behind the UniProt entries cited, without tags or fusion partners. Where a name states a change or a piece, a line headed by the entry shows the natural chain unless it says otherwise.
UniProt Q9GZT9: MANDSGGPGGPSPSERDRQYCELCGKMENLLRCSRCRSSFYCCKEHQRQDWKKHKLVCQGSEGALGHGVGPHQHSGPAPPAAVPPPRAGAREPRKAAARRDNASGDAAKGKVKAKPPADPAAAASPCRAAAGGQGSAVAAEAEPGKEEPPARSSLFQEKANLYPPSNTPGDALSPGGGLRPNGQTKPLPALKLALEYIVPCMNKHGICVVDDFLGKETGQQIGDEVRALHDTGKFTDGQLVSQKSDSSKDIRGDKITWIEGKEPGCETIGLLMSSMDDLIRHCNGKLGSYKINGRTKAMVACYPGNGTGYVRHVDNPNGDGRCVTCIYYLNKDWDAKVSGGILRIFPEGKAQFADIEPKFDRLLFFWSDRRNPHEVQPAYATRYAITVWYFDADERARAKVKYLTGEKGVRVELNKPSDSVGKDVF
UniProt Q9UGV2: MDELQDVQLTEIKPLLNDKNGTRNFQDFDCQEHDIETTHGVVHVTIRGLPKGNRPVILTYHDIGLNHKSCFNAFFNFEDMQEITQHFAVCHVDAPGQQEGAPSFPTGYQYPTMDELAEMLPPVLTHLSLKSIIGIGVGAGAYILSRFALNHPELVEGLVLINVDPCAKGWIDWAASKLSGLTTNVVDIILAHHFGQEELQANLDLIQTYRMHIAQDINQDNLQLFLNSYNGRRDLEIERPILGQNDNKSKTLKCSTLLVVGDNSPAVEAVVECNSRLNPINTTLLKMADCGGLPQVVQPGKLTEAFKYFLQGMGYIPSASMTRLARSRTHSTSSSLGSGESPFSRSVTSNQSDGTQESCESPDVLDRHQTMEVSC

No constants are given. Whether binding was seen depends on the method and setting. For part of these data: Binding seen in cells or lysates may run through a third protein. Some binding calls cover weakened binding; strength is not graded here.

Assay [1] has as its target Flag-tagged PHD2 (UniProt Q9GZT9). Nature of the assay: co-immunoprecipitation with anti-Myc gel from HEK293T cells, anti-Flag Western blot; filing ranks PHD2-binding affinities V296D>Q97E>R47D≈N66D. Background: A western blot detects proteins with antibodies after separation by electrophoresis.
Assay [2] has the same target. Put plainly: co-immunoprecipitation with anti-Myc gel from HEK293T cells (normoxia, MG132), anti-Flag Western blot.
Assay [3] concerns the target recombinant GST-NDRG3 protein (human) (UniProt Q9UGV2). Nature of the assay: in vitro pull-down: 10 µg His-PHD2 and 10 µg GST-NDRG3 on Ni-NTA agarose, anti-NDRG3 Western blot.
Assay [4] has the same target. Nature of the assay: in vitro Ni-NTA pull-down of recombinant proteins (FIG. 4A legend).
Assay [5] concerns the target recombinant c-Raf-His protein (UniProt P04049). Put plainly: His pull-down of c-Raf-His and NDRG3-GST on Ni-NTA agarose, anti-NDRG3 Western blot.
The target is the same in assay [6]. Put plainly: His pull-down of recombinant proteins (FIG. 19D legend).
For assay [7], the target named is Flag-tagged c-Raf (UniProt P04049). Put plainly: anti-FLAG immunoprecipitation from Flag-c-Raf-overexpressing HeLa cells (1% O2, 24 h), anti-NDRG3 Western blot.
Assay [8] has the same target. Nature of the assay: anti-FLAG immunoprecipitation from HeLa cells (FIG. 19D legend).

As to “Myc-tagged NDRG3 (V296D) variant (from UniProt Q9UGV2 1-375)”, the binding result in assay [1] is on record as “binds”.

Turning to “Myc-tagged NDRG3 (from UniProt Q9UGV2 1-375)”, in assay [2], the binding entry is “binds”.

For the substance “recombinant His-PHD2 protein (from UniProt Q9GZT9 1-426) (enzyme)”, the binding result in assay [3] and in assay [4] was “binds” in each case.

With “Myc-tagged NDRG3 (Q97E) variant (from UniProt Q9UGV2 1-375)”, the binding result in assay [1] is recorded as “binds”.

“recombinant GST-NDRG3 protein (from UniProt Q9UGV2 1-375)”: the binding result in assay [5] and in assay [6] was “binds” throughout.

Consider “N-myc downstream-regulated gene 3 (NDRG3) protein (from UniProt Q9UGV2 1-375)”, for which the binding result in assay [7] and in assay [8] was “binds” in each case.
